Measured values: patent publication US20170165365A1 (SYMPHOGEN A S, published 2017)
Substitutions are numbered along the chain they refer to. These are yes or no findings as the source states them, for the method shown. Some binding calls cover weakened binding; strength is not graded here. Values belong to the binder of their own block, whether it stands above or below them.

Chains of the proteins cited; added tags and fusions are not shown. Lines headed by an entry give the natural chain unless they say otherwise; changes in a name come on top. A line that says so, or that is headed by a name, gives the form on record, which may keep a tag or linker. Residues count along the entry.
UniProt P21860, residues 20-643: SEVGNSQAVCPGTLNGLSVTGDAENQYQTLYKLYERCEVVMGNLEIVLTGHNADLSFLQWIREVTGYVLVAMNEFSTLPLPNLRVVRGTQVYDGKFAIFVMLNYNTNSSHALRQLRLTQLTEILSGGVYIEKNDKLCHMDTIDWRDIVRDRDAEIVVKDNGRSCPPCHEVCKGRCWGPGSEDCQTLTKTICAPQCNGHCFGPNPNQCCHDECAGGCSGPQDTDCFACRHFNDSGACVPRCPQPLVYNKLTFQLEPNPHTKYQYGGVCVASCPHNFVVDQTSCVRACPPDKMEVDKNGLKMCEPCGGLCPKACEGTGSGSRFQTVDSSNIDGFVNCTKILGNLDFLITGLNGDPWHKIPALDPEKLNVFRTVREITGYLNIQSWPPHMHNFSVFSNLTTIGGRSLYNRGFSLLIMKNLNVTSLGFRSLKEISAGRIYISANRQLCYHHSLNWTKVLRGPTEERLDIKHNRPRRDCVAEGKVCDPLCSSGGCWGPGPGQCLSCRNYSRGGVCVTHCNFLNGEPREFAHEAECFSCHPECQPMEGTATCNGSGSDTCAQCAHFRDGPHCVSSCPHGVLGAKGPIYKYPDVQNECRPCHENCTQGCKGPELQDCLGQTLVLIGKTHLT
cynomolgus HER3 antigen (G7PIG5, form named): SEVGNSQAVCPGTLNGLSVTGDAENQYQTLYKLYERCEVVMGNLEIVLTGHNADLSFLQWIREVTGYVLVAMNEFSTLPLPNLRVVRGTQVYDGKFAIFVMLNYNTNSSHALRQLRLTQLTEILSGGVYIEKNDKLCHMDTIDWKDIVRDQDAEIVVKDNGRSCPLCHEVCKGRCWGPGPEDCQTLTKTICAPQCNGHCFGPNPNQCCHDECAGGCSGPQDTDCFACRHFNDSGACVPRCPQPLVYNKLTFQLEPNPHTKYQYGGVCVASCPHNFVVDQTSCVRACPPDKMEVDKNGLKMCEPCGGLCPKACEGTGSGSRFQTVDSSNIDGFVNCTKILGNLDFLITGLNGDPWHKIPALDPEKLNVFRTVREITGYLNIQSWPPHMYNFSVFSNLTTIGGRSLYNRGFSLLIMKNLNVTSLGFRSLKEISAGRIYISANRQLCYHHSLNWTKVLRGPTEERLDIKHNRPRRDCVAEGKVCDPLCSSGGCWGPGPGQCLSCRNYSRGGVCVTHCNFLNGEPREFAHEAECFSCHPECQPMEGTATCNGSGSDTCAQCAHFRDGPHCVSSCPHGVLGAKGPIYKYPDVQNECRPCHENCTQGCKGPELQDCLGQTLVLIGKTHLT

Legend:
[1] = target: T1, human HER3 antigen (Sino Biologicals) (human, UniProt P21860 20-643); assay: ELISA, coated hu HER3, 40 nM antibody, OD450
T1 construct: Bought soluble antigen; also called human antigen

[2] = target: cynomolgus HER3 antigen (cynomolgus monkey) (UniProt G7PIG5); assay: ELISA, coated cy HER3, 40 nM antibody, OD450
[3] = target: cynomolgus HER3 antigen (cynomolgus monkey) (UniProt G7PIG5); assay: ELISA on coated antigen (cross-reactivity) and SPR, summary
[4] = target: cynomolgus HER3 antigen (cynomolgus monkey) (UniProt G7PIG5); assay: ELISA, coated antigen, antibody in solution
[5] = target: cynomolgus EGFR antigen (cynomolgus monkey); assay: ELISA, coated cy EGFR, 40 nM antibody, OD450

B2: humanized anti-HER3 antibody 11006 (antibody, V domains shown)
VH: QVQLQESGPGLVKPSQTLSLTCTVSGYSITSAYYWNWIRQHPGKGVEWMGYIGYSGRNTYNPSLKNRVTISRDTSKNQFSLKLSSVTAADTAVYYCSREGDYGYSDYWGQGTLVTVSS
VL: DIQMTQSPSSLSASVGDRVTVTCRASQDTNNYLNWYQQKPGKAVKLLIYYTSRLQSGVPSRFSGSGSGTDFTLTISSLQPEDFATYFCQQSETLPWTFGQGTKVEIK
binding [3]: binds | binding [4]: binds | binding [2]: binds

B3: humanized anti-HER3 antibody 11052 (antibody, V domains shown)
VH: B2 VH with H41F
VL: B2 VL with T29I, F71Y, V104L
binding [3]: binds | binding [4]: binds | binding [2]: binds

B5: chimeric anti-EGFR antibody 1565 (antibody, V domains shown)
VH: EVQLQQSGTELVKPGASVILSCKASGYTFTSYWMQWVKQRPGQGLEWIGNINPSNGGTSFNEEFKSRATLTVDKSSSTAYMQLSSLTSEDSAVYYCARDGGLYDGYYFDFWGQGTTLTVS
VL: NIVMTQSHKFMSTLIGARVSITCKASQDVDTAVAWYQQKPGQSPKLLIYWASTRHTGVPDRFTGSGSGTDFSLTVSNVQSEDLTDYFCQQYSSYPLTFGAGTKLELKR
notes: light chain entry is full length
binding [5]: binds

Other lines, results leading:

binding [1]: binds | binding [2]: binds
B1: chimeric anti-HER3 antibody 5082 (antibody, V domains shown)
VH: EVQLKESGPGLVKPSQSLSLTCSVTGYSITSAYYWNWIRQFPGNKVEWMGYIGYDGRNTYNPSLKNRISITRDTSKNQFFLKLNSLTTEDTATYYCSREGDYGYSDYWGQGTTLTVS
VL: DIVMTQATSSLSASLGDRVTVSCRASQDINNYLNWYQQKPDGTVKLLIYYTSRLQSGVPSRFSGSGSGIDYSLTISNLEQEDFVTYFCQQSETLPWTFGGGTKLELKR
notes: as for B5

binding [1]: binds | binding [2]: binds
B4: chimeric anti-HER3 antibody 5038 (antibody, V domains shown)
VH: EVKLVESGPGLVKPSQSLSLTCSVTGYSITSGFYWTWIRQFPGNKLEWMGFISYDGSNNYNPSLKNRISITRDTSKNQFFLKLNSVTTEDTATYYCARGGGYYGNLFDYWGQGTTLTVS
VL: DIVMTQTTSSLSASLGDRVTISCRPSQDISNYVNWFQQKPGGTVKLLIFHTSRLHSGVPSRFSGSGSGTDYSLTISTLEQEDIAIYFCQQGITLPWTFGGGTKLEIKR
notes: as for B5

binding [3]: binds | binding [4]: binds | binding [2]: binds
B6: humanized anti-HER3 antibody 10810 (antibody, V domains shown)
VH: QVQLQESGPGLVKPSQTLSLTCTVSGYSITSGFYWTWIRQHPGNGLEWIGFISYSGSNNYNPSLKNRVTISVDTSKNQFSLKLSSVTAADTATYYCARGGGYYGNLFDYWGQGTLVTVSS
VL: DIQMTQSPSSLSASVGDRVTITCRPSQDISNYVNWFQQKPGKAPKLLIFHTSRLHSGVPSRFSGSGSGTDFTLTISSLQPEDIATYYCQQGITLPWTFGQGTKVEIK
